Reference: paper PMC7819943, “Rice protein-binding microarrays: a tool to detect cis-acting elements near promoter regions in rice”
The list shows a part of the results.

Chains of the proteins cited; added tags and fusions are not shown.
UniProt Q0JBA9, entry or part of it: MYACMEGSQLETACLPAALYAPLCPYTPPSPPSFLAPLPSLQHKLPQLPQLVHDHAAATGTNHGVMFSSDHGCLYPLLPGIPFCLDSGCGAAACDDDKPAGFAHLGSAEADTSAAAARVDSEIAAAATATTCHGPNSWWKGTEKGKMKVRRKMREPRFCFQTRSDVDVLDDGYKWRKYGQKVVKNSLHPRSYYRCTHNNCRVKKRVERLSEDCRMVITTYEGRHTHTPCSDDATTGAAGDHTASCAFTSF

target: OsWRKY34 (Oryza sativa, UniProt Q0JBA9 1-250); test: protein-binding microarray (RPBM); PBS, 2% BSA, 51.3 ng/ul salmon testes DNA, 50 uM zinc acetate, 200 nM TF, 25 C, 1 h; high values mean tight binding; details: protein: recombinant; tags: N-terminal polyhistidine and DsRed monomer fusion (pET32a); label: CyDye5-dUTP incorporated in the synthesized complementary strand; 3' TTTTT single-stranded linker to array surface; dsDNA, one strand shown
Outline: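 Binding signal here means per-feature fluorescence intensity in arbitrary units. The values were read on an Axon 4000B scanner after a custom Agilent array, double-stranded by primer extension with Cy5-dUTP, was incubated with 200 nM protein at 25 °C for 1 h in PBS with 2% BSA, salmon testes DNA and 50 µM zinc acetate, then washed. The proteins were transcription factors with an N-terminal polyhistidine tag and DsRed, expressed in E. coli BL21-CodonPlus and purified on Ni–NTA.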

| Sequence | binding signal |
| --- | --- |
| GCGTAACTTTCTCATACGGACTCGGAATCAGGCAAATAATCGGAGTCACCTAGTGCAG | 8550 fluorescence intensity (a.u.) |
| CGCTGATTCGCTAAATGTGTTTCTTATACGGATATGTATTCGGAGTCACCTAGTGCAG | 9520 fluorescence intensity (a.u.) |
| GAATTTATTTATTTTCAGCTGCTGTTTATTTATATTTATTCGGAGTCACCTAGTGCAG | 8220 fluorescence intensity (a.u.) |
| GAGCTATTATTGATTGTTTTTCGTGAACGTCATTGTATTACGGAGTCACCTAGTGCAG | 11000 fluorescence intensity (a.u.) |
| AGTCATTTTCCCTGTTTGCAATGTTTACAAGATTTAGATACGGAGTCACCTAGTGCAG | 9870 fluorescence intensity (a.u.) |
| TAATCCTCTGTTTTACACGTGTATTTCTATCACATTCCTACGGAGTCACCTAGTGCAG | 8040 fluorescence intensity (a.u.) |
| TTATCAGTTTAAGTCTTTGAAGGTTATGGTATTTTGAACACGGAGTCACCTAGTGCAG | 8480 fluorescence intensity (a.u.) |
| ACCGCCTCTCCACTCTACCACACCGACACGCACACCCAGCCGGAGTCACCTAGTGCAG | 9720 fluorescence intensity (a.u.) |
| CACGCGCGTGGTCGGTGAAAATGCTAGGCCTACTTACTGTCGGAGTCACCTAGTGCAG | 8120 fluorescence intensity (a.u.) |
| TGTTTCTTTCGGTTTCTTGGGCTTCTCTTGCGGCAACATGCGGAGTCACCTAGTGCAG | 10500 fluorescence intensity (a.u.) |
| CCCTTTGTTTGTGTGTTTGGCTTGTCCAATTCAAAGTTTCCGGAGTCACCTAGTGCAG | 10000 fluorescence intensity (a.u.) |
| CGATGGCCTCCTCCTCCTCCGCGTAACCATCGTCACCACCCGGAGTCACCTAGTGCAG | 8100 fluorescence intensity (a.u.) |
| TTCGCGCCCACCGTAGCTGGACACCTCCCCGCGCCTTGCGCGGAGTCACCTAGTGCAG | 8710 fluorescence intensity (a.u.) |
| TACTGGTTGATTGTACACTTTGTCCTTGGATTTTACGGACCGGAGTCACCTAGTGCAG | 9580 fluorescence intensity (a.u.) |
| ACCACCATTCGTGCTGCCGCTTGCGTGTTGTTATTACTCCCGGAGTCACCTAGTGCAG | 8480 fluorescence intensity (a.u.) |
| CGTGGCCGTCGAGTTGCTGCCTCAGTTGGTTCAAGAACCGCGGAGTCACCTAGTGCAG | 9240 fluorescence intensity (a.u.) |
| GCAGTGTCATGTTTTTTCGGTGTCCTCTAACCAATTACACCGGAGTCACCTAGTGCAG | 11500 fluorescence intensity (a.u.) |
| GGTGTTCTGTGATGGTGAATATGCATTTCCTATCTGGATCCGGAGTCACCTAGTGCAG | 9150 fluorescence intensity (a.u.) |
| TGGTGGTGGTAGGAAGAAGAAGAAAGAGAGGGGAAAAAAACGGAGTCACCTAGTGCAG | 8450 fluorescence intensity (a.u.) |
| AGCGGGGCAAGGCGGAATAGGGCGGTTGCTGCGGTGGGGACGGAGTCACCTAGTGCAG | 8510 fluorescence intensity (a.u.) |
| CCCGCCGCTGCCGCTCCGCTCGCTCGCCCGCCACTGCCGCCGGAGTCACCTAGTGCAG | 11700 fluorescence intensity (a.u.) |

An excerpt of the results above:

| Sequence | binding signal |
| --- | --- |
| TAATCCTCTGTTTTACACGTGTATTTCTATCACATTCCTACGGAGTCACCTAGTGCAG | 8040 fluorescence intensity (a.u.) |
| TTATCAGTTTAAGTCTTTGAAGGTTATGGTATTTTGAACACGGAGTCACCTAGTGCAG | 8480 fluorescence intensity (a.u.) |
| ACCGCCTCTCCACTCTACCACACCGACACGCACACCCAGCCGGAGTCACCTAGTGCAG | 9720 fluorescence intensity (a.u.) |

Next part.

| Sequence | binding signal |
| --- | --- |
| TGATGATGGGTGGGATTGCCTTTCTCGAATCCTGTTCCACCGGAGTCACCTAGTGCAG | 8900 fluorescence intensity (a.u.) |
| GGCTTATTTCTGCAATGCATTTTTTTTCTGGTTTGACTCTCGGAGTCACCTAGTGCAG | 15800 fluorescence intensity (a.u.) |
| ACTTCCCATTGTTGTTGCCATCGCCGCCGCCGCCGCCGCCCGGAGTCACCTAGTGCAG | 12200 fluorescence intensity (a.u.) |
| ACTGTTTCCTTTAATTTGACTCTGTCACAGTTGAGTTCTACGGAGTCACCTAGTGCAG | 8060 fluorescence intensity (a.u.) |
| CCGACTGCCGCCTTCCTCGCCGCCCTCAACTCCACCTTCGCGGAGTCACCTAGTGCAG | 9640 fluorescence intensity (a.u.) |
| CCTACGAGTATCACGTTCTCCTGCTGCTCCACCAGCGTTACGGAGTCACCTAGTGCAG | 11000 fluorescence intensity (a.u.) |
| TTATCCGTGTATGAGTATGTTTTTAAGTTCATTTGGTTTTCGGAGTCACCTAGTGCAG | 11500 fluorescence intensity (a.u.) |
| GTCGTTCGTATCCGATTCCTGTCACGCGCAACATTCATTGCGGAGTCACCTAGTGCAG | 9650 fluorescence intensity (a.u.) |
| CCTGCACCGTCCTCCGCGCGTCCGCCCCTCACTCTCCCAGCGGAGTCACCTAGTGCAG | 10600 fluorescence intensity (a.u.) |
| AGACACAGACGCGCACATACCACTACACACACAACACCACCGGAGTCACCTAGTGCAG | 9740 fluorescence intensity (a.u.) |
| TGTTGGTTCAAAATGTACAGCTGTACTCTCTATCACATTTCGGAGTCACCTAGTGCAG | 8110 fluorescence intensity (a.u.) |
| AAGGGCCCATTTGCTACTCCACCCACGGTTTTCTCTCAAACGGAGTCACCTAGTGCAG | 10100 fluorescence intensity (a.u.) |
| CCTTGGTTTCACCTTTGCTGTATTGGTGTTTGGTTGGTCTCGGAGTCACCTAGTGCAG | 13100 fluorescence intensity (a.u.) |
| AGGTGCCCTGTCAATCGTTTCCGTGATTCGTGCTTCTATACGGAGTCACCTAGTGCAG | 10200 fluorescence intensity (a.u.) |
| GGTATGTGGAGTTTATCATCCCTTAGTCCTAGCTGTCGCCCGGAGTCACCTAGTGCAG | 10900 fluorescence intensity (a.u.) |
| ACTATTATACCTGCTCTTAATCGTCACACAAACCGCGGTTCGGAGTCACCTAGTGCAG | 10300 fluorescence intensity (a.u.) |
| TCCTTCTGTCACCATTCGATTCCCAAACTCTCGCCGCCGCCGGAGTCACCTAGTGCAG | 9140 fluorescence intensity (a.u.) |
| TGCCGTTGATTTTTTTTTAAACATGTTTGACCGTTCGTCTCGGAGTCACCTAGTGCAG | 14900 fluorescence intensity (a.u.) |
| GCCCGCCTTTTCTCATCAGCTTAAATTTTTGGGTTGAACTCGGAGTCACCTAGTGCAG | 8220 fluorescence intensity (a.u.) |
| TTGGCTGTTGCTGAGGGCTAGGGGCAGTTTTTGGATGGTTCGGAGTCACCTAGTGCAG | 9500 fluorescence intensity (a.u.) |
| GGACACTGCACATTGCAATTTCTGGATCTGGACTGACTGACGGAGTCACCTAGTGCAG | 8370 fluorescence intensity (a.u.) |
